# According to paper PMC4259352:
# By UniProt entry, the sequences of proteins in these tests, tags left out.
# UniProt O60934: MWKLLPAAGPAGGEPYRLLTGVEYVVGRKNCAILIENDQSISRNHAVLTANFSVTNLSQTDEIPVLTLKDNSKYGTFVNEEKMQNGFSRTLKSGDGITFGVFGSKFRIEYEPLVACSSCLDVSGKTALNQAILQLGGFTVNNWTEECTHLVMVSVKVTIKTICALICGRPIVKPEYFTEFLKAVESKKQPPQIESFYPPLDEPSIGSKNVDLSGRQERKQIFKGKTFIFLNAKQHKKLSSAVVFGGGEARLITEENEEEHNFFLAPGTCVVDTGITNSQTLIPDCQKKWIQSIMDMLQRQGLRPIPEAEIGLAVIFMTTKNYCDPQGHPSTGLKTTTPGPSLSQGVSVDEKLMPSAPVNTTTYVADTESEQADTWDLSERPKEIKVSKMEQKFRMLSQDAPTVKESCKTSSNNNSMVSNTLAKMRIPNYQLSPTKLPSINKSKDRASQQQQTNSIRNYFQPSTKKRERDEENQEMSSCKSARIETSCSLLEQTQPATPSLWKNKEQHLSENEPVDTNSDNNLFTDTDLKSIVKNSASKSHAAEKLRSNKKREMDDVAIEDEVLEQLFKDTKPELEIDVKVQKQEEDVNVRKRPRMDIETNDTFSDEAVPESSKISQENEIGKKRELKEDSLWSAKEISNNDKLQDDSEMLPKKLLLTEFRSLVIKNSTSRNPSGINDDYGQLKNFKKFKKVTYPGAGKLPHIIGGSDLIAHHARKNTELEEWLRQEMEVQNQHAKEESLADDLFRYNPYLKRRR
# UniProt P06733: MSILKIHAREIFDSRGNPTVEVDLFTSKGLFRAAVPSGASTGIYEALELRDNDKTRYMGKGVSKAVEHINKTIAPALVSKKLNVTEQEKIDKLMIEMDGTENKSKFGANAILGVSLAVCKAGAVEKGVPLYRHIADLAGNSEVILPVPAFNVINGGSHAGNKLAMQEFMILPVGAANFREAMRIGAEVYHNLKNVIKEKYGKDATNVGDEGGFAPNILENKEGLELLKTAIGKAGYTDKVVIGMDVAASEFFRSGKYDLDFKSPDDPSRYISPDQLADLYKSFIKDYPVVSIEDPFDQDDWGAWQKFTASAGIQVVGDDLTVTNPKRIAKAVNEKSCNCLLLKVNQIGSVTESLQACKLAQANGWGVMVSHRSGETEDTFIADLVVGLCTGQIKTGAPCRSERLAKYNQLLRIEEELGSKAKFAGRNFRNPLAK
# UniProt P08238: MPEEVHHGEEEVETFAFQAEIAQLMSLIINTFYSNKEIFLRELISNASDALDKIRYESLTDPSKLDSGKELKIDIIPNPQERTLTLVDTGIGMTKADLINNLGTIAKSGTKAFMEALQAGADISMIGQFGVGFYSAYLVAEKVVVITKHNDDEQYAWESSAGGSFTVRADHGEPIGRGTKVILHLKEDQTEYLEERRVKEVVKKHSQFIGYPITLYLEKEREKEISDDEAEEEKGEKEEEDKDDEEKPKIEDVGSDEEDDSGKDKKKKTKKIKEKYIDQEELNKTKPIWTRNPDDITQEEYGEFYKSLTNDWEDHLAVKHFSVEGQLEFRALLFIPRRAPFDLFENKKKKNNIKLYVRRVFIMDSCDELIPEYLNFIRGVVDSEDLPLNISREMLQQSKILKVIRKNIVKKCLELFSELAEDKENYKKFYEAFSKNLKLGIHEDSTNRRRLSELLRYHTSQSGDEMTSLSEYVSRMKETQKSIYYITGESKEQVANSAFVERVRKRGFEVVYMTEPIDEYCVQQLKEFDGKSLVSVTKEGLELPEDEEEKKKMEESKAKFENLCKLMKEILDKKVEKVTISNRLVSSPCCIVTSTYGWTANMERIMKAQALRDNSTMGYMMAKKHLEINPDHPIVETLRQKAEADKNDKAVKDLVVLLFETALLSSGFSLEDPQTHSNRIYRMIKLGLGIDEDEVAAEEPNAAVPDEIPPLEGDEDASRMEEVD
# UniProt P12277: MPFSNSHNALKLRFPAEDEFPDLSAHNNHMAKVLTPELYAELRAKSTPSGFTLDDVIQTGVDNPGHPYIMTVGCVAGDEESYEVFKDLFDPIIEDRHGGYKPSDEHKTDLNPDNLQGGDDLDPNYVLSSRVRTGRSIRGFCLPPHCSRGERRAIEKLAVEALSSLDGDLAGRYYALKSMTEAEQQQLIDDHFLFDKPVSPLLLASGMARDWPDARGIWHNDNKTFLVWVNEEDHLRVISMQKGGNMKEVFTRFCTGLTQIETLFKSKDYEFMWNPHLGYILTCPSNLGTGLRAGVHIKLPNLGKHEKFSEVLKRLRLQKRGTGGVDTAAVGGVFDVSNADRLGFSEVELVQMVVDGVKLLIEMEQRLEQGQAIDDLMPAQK
# UniProt P00441: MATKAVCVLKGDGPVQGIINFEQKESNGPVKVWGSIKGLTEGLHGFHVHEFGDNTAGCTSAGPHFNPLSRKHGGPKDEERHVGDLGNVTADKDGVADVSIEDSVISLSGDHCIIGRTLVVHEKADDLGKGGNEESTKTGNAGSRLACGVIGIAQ
# UniProt P68104: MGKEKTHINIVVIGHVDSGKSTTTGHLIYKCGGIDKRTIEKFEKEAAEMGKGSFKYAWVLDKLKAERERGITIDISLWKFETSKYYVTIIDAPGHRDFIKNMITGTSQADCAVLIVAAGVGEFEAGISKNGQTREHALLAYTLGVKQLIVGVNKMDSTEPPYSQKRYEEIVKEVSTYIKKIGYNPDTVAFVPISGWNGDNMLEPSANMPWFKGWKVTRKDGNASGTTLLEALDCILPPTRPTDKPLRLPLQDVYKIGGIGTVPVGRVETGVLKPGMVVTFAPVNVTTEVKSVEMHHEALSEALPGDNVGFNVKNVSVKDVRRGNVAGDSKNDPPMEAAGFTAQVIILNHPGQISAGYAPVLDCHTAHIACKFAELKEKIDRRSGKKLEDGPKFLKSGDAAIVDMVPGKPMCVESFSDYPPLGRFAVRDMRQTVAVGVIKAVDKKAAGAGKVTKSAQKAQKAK
# UniProt Q14240: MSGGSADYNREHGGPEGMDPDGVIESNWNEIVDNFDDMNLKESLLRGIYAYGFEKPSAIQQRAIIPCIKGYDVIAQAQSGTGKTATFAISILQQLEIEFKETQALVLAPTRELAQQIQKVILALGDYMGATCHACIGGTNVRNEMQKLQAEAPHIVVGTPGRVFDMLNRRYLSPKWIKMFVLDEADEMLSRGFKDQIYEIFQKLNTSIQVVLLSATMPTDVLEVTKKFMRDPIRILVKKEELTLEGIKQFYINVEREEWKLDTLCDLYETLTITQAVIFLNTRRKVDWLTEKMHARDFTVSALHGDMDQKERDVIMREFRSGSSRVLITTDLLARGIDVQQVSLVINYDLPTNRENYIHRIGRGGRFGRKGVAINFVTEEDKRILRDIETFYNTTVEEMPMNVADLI
# UniProt P04406: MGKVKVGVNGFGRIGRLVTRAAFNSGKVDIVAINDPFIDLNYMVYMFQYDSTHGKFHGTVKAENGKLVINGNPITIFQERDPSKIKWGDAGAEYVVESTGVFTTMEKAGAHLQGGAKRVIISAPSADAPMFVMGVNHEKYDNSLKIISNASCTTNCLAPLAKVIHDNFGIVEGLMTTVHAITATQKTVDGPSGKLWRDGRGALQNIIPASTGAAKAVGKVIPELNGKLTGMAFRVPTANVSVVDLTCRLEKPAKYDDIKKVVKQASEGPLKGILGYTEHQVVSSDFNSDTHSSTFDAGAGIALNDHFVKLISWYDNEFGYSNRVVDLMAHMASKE
# UniProt P0DMV8: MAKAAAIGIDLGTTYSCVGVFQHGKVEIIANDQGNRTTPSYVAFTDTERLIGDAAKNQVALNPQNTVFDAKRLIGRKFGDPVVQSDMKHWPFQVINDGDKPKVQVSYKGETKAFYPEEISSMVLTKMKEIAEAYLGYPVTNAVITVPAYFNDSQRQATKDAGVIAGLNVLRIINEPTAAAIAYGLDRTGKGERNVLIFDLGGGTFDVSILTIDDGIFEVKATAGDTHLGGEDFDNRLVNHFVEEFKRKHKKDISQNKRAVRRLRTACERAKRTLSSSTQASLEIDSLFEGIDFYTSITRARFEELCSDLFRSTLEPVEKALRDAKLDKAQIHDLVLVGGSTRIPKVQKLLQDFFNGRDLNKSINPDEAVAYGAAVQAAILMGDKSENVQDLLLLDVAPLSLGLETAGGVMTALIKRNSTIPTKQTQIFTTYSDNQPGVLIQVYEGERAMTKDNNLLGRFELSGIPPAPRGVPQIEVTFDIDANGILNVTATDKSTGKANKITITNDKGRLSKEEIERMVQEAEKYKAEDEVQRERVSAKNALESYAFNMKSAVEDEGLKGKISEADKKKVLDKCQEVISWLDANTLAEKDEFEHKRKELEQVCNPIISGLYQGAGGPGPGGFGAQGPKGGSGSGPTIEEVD
# UniProt P11142: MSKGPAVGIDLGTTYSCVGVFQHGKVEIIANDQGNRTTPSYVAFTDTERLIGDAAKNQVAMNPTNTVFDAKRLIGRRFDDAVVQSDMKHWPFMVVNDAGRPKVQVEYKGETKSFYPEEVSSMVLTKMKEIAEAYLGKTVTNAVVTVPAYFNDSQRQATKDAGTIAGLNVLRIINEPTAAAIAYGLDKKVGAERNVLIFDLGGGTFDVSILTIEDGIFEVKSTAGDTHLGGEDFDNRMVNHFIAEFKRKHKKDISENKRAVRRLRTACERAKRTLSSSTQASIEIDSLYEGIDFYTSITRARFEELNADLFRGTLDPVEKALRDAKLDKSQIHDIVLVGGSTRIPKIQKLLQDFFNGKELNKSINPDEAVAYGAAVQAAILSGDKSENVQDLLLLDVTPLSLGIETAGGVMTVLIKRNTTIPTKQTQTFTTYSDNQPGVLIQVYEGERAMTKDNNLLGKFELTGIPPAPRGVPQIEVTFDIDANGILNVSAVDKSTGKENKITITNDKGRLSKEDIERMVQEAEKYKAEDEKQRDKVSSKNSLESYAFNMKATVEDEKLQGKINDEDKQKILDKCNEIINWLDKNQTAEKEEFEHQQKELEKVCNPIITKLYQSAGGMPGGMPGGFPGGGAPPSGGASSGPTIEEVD
# UniProt P07864: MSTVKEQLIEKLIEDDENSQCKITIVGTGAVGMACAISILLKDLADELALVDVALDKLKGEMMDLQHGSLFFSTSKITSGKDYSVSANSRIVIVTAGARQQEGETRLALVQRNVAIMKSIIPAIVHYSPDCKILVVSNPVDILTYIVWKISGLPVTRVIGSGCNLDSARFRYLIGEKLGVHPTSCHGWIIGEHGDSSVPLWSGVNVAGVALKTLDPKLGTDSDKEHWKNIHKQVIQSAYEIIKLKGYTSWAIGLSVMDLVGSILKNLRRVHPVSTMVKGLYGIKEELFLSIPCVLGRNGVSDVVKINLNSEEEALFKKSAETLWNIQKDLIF
# Results are given in words; binding and its absence hold for the method and conditions named. In cells and extracts the contact can be indirect. These calls come from enrichment with a bait or labelling near it, and not all partners need be listed. No binding means not detected with the bait.
# B1: Peroxiredoxin 1 (protein, UniProt Q06830 1-199)
# chain: MSSGNAKIGHPAPNFKATAVMPDGQFKDISLSDYKGKYVVFFFYPLDFTFVCPTEIIAFSDRAEEFKKLNCQVIGASVDSHFCHLAWVNTPKKQGGLGPMNIPLVSDPKRTIAQDYGVLKADEGISFRGLFIIDDKGILRQITVNDLPVGRSVDETLRLVQAFQFTDKHGEVCPAGWKPGSDTIKPDVQKSKEYFSKQK
# B2: Tumor necrosis factor type 1 receptor associated protein TRAP-1 -human (protein, UniProt Q12931 60-704)
# chain: STQTAEDKEEPLHSIISSTESVQGSTSKHEFQAETKKLLDIVARSLYSEKEVFIRELISNASDALEKLRHKLVSDGQALPEMEIHLQTNAEKGTITIQDTGIGMTQEELVSNLGTIARSGSKAFLDALQNQAEASSKIIGQFGVGFYSAFMVADRVEVYSRSAAPGSLGYQWLSDGSGVFEIAEASGVRTGTKIIIHLKSDCKEFSSEARVRDVVTKYSNFVSFPLYLNGRRMNTLQAIWMMDPKDVREWQHEEFYRYVAQAHDKPRYTLHYKTDAPLNIRSIFYVPDMKPSMFDVSRELGSSVALYSRKVLIQTKATDILPKWLRFIRGVVDSEDIPLNLSRELLQESALIRKLRDVLQQRLIKFFIDQSKKDAEKYAKFFEDYGLFMREGIVTATEQEVKEDIAKLLRYESSALPSGQLTSLSEYASRMRAGTRNIYYLCAPNRHLAEHSPYYEAMKKKDTEVLFCFEQFDELTLLHLREFDKKKLISVETDIVVDHYKEEKFEDRSPAAECLSEKETEELMAWMRNVLGSRVTNVKVTLRLDTHPAMVTVLEMGAARHFLRMQQLAKTQEERAQLLQPTLEINPRHALIKKLNQLRASEPGLAQLLVDQIYENAMIAAGLVDDPRAMVGRLNELLVKALERH
# B3: Aldolase A (protein, UniProt P04075 1-364)
# chain: MPYQYPALTPEQKKELSDIAHRIVAPGKGILAADESTGSIAKRLQSIGTENTEENRRFYRQLLLTADDRVNPCIGGVILFHETLYQKADDGRPFPQVIKSKGGVVGIKVDKGVVPLAGTNGETTTQGLDGLSERCAQYKKDGADFAKWRCVLKIGEHTPSALAIMENANVLARYASICQQNGIVPIVEPEILPDGDHDLKRCQYVTEKVLAAVYKALSDHHIYLEGTLLKPNMVTPGHACTQKFSHEEIAMATVTALRRTVPPAVTGITFLSGGQSEEEASINLNAINKCPLLKPWALTFSYGRALQASALKAWGGKKENLKAAQEEYVKRALANSLACQGKYTPSGQAGAAASESLFVSNHAY
# Target: Strep-tagged full-length nibrin (NBN) (human) (UniProt O60934)
# Test: affinity purification with mass spectrometry; Strep-tagged bait transiently expressed in HEK293 cells, untreated (K) or lysed 30 min after 2 Gy of X-rays (RX); lysate (20 mM Tris-HCl pH 8.0, 137 mM NaCl, 10% glycerol, 1% NP-40, 10 mM EDTA) on Strep-Tactin Sepharose, eluted with 2.5 mM desthiobiotin; SDS-PAGE slices, trypsin, MALDI-TOF/TOF or nano-LC-ESI-IT MS/MS; empty vector as control
row,binding,Molecule
1,binds,2-phosphopyruvate-hydratase alpha enolase (from UniProt P06733 1-434)
2,no binding,90kDa heat shock protein (from UniProt P08238 1-724)
3,binds,"ATP synthase subunit beta, mitochondrial precursor (from UniProt P06576 48-529)"
4,binds,Calreticulin = calcium binding protein (from UniProt P27797 18-417)
5,binds,Creatine kinase B (from UniProt P12277 1-381)
6,binds,Cu/Zn-superoxide dismutase (from UniProt P00441 1-154)
7,binds,Elongation factor 1-alpha 1 (from UniProt P68104 1-462)
8,binds,Eukaryotic initiation factor 4AII (from UniProt Q14240 1-407)
9,no binding,Glyceraldehyde-3-phosphate dehydrogenase (from UniProt P04406 1-335)
10,no binding,HSP70-2 (from UniProt P0DMV8 1-641)
11,binds,Heat shock cognate 71 kDa protein isoform 1 (from UniProt P11142 1-646)
12,binds,Hsp89-alpha-delta-N (from UniProt P07900 1-732)
13,binds,L-lactate dehydrogenase C chain (from UniProt P07864 1-332)
14,binds,B1
15,binds,B2
16,binds,B3
